{"source": "PubChem BioAssay AID188", "about": "(DTP/NCI, 2004)", "tested_on": "CD2F1 mice, nontumored, toxicity/survival", "assay": "NCI In Vivo Anticancer Drug Screen. Data for tumor model Nontumored Animals (Toxicity Test) in CD2F1 (CDF1) mice", "note": "Values are animals surviving of animals treated; these mice carried no tumour. Survivors were counted at the toxicity check, usually on the fifth day, unless a day is given; later deaths do not show. Schedules are NCI's codes, taken here to give the interval after Q, in days (D) or hours (H), and the number of doses after X."}
{"smiles": "COc1cc(C[C@H]2c3cc(OC)c(OC)cc3CCN2C)c(Oc2cc3c(cc2OC)-c2c(OC)c(OC)cc4c2[C@H](C3)N(C)CC4)cc1OC", "values": [{"measurement": "survivor count", "setting": "dose: 2.5 mg/kg/injection, schedule: Q03HX016 (ip), vehicle: saline", "value": "8 of 8"}, {"measurement": "survivor count", "setting": "dose: 2.5 mg/kg/injection, schedule: Q03HX024 (ip), vehicle: saline", "value": "10 of 10"}, {"measurement": "survivor count", "setting": "dose: 5.0 mg/kg/injection, schedule: Q03HX008 (ip), vehicle: saline", "value": "8 of 8"}, {"measurement": "survivor count", "setting": "dose: 5.0 mg/kg/injection, schedule: Q03HX016 (ip), vehicle: saline", "value": "8 of 8"}, {"measurement": "survivor count", "setting": "dose: 5.0 mg/kg/injection, schedule: Q03HX024 (ip), vehicle: saline", "value": "8 of 8"}, {"measurement": "survivor count", "setting": "dose: 6.25 mg/kg/injection, schedule: Q01DX009 (ip), vehicle: saline", "value": "8 of 8"}, {"measurement": "survivor count", "setting": "dose: 10.0 mg/kg/injection, schedule: Q03HX008 (ip), vehicle: saline", "value": "8 of 8"}, {"measurement": "survivor count", "setting": "dose: 10.0 mg/kg/injection, schedule: Q03HX016 (ip), vehicle: saline", "value": "8 of 8"}, {"measurement": "survivor count", "setting": "dose: 10.0 mg/kg/injection, schedule: Q03HX024 (ip), vehicle: saline", "value": "8 of 8"}, {"measurement": "survivor count", "setting": "dose: 12.5 mg/kg/injection, schedule: Q01DX009 (ip), vehicle: saline", "value": "8 of 8"}, {"measurement": "survivor count", "setting": "dose: 12.5 mg/kg/injection, schedule: Q01DX009 (oral), vehicle: saline", "value": "8 of 8"}, {"measurement": "survivor count", "setting": "dose: 20.0 mg/kg/injection, schedule: Q03HX008 (ip), vehicle: saline", "value": "8 of 8"}, {"measurement": "survivor count", "setting": "dose: 20.0 mg/kg/injection, schedule: Q03HX016 (ip), vehicle: saline", "value": "8 of 8"}, {"measurement": "survivor count", "setting": "dose: 20.0 mg/kg/injection, schedule: Q03HX024 (ip), vehicle: saline", "value": "8 of 8"}, {"measurement": "survivor count", "setting": "dose: 25.0 mg/kg/injection, schedule: Q01DX009 (ip), vehicle: saline", "value": "8 of 8"}, {"measurement": "survivor count", "setting": "dose: 25.0 mg/kg/injection, schedule: Q01DX009 (oral), vehicle: saline", "value": "7 of 8"}, {"measurement": "survivor count", "setting": "dose: 25.0 mg/kg/injection, schedule: Q04DX003 (ip), vehicle: saline", "value": "8 of 8"}, {"measurement": "survivor count", "setting": "dose: 25.0 mg/kg/injection, schedule: Q08DX002 (ip), vehicle: saline", "value": "8 of 8"}, {"measurement": "survivor count", "setting": "dose: 40.0 mg/kg/injection, schedule: Q03HX008 (ip), vehicle: saline", "value": "8 of 8"}, {"measurement": "survivor count", "setting": "dose: 40.0 mg/kg/injection, schedule: Q03HX016 (ip), vehicle: saline", "value": "8 of 8"}, {"measurement": "survivor count", "setting": "dose: 40.0 mg/kg/injection, schedule: Q03HX024 (ip), vehicle: saline", "value": "8 of 8"}, {"measurement": "survivor count", "setting": "dose: 50.0 mg/kg/injection, schedule: Q01DX001 (ip), vehicle: saline", "value": "8 of 8"}, {"measurement": "survivor count", "setting": "dose: 50.0 mg/kg/injection, schedule: Q01DX009 (ip), vehicle: saline", "value": "8 of 8"}, {"measurement": "survivor count", "setting": "dose: 50.0 mg/kg/injection, schedule: Q01DX009 (oral), vehicle: saline", "value": "7 of 8"}, {"measurement": "survivor count", "setting": "dose: 50.0 mg/kg/injection, schedule: Q04DX003 (ip), vehicle: saline", "value": "8 of 8"}, {"measurement": "survivor count", "setting": "dose: 50.0 mg/kg/injection, schedule: Q08DX002 (ip), vehicle: saline", "value": "8 of 8"}, {"measurement": "survivor count", "setting": "dose: 80.0 mg/kg/injection, schedule: Q03HX008 (ip), vehicle: saline", "value": "8 of 8"}, {"measurement": "survivor count", "setting": "dose: 100.0 mg/kg/injection, schedule: Q01DX001 (ip), vehicle: saline", "value": "8 of 8"}, {"measurement": "survivor count", "setting": "dose: 100.0 mg/kg/injection, schedule: Q01DX001 (oral), vehicle: saline", "value": "8 of 8"}, {"measurement": "survivor count", "setting": "dose: 100.0 mg/kg/injection, schedule: Q01DX009 (ip), vehicle: saline", "value": "8 of 8"}, {"measurement": "survivor count", "setting": "dose: 100.0 mg/kg/injection, schedule: Q01DX009 (oral), vehicle: saline", "value": "8 of 8"}, {"measurement": "survivor count", "setting": "dose: 100.0 mg/kg/injection, schedule: Q04DX003 (ip), vehicle: saline", "value": "8 of 8"}, {"measurement": "survivor count", "setting": "dose: 100.0 mg/kg/injection, schedule: Q08DX002 (ip), vehicle: saline", "value": "8 of 8"}, {"measurement": "survivor count", "setting": "dose: 200.0 mg/kg/injection, schedule: Q01DX001 (ip), vehicle: saline", "value": "8 of 8"}, {"measurement": "survivor count", "setting": "dose: 200.0 mg/kg/injection, schedule: Q01DX001 (oral), vehicle: saline", "value": "7 of 8"}, {"measurement": "survivor count", "setting": "dose: 200.0 mg/kg/injection, schedule: Q01DX009 (oral), vehicle: saline", "value": "6 of 8"}, {"measurement": "survivor count", "setting": "dose: 200.0 mg/kg/injection, schedule: Q04DX003 (ip), vehicle: saline", "value": "8 of 8"}, {"measurement": "survivor count", "setting": "dose: 200.0 mg/kg/injection, schedule: Q08DX002 (ip), vehicle: saline", "value": "8 of 8"}, {"measurement": "survivor count", "setting": "dose: 400.0 mg/kg/injection, schedule: Q01DX001 (ip), vehicle: saline", "value": "8 of 8"}, {"measurement": "survivor count", "setting": "dose: 400.0 mg/kg/injection, schedule: Q01DX001 (oral), vehicle: saline", "value": "7 of 8"}, {"measurement": "survivor count", "setting": "dose: 400.0 mg/kg/injection, schedule: Q04DX003 (ip), vehicle: saline", "value": "8 of 8"}, {"measurement": "survivor count", "setting": "dose: 400.0 mg/kg/injection, schedule: Q08DX002 (ip), vehicle: saline", "value": "8 of 8"}, {"measurement": "survivor count", "setting": "dose: 800.0 mg/kg/injection, schedule: Q01DX001 (ip), vehicle: saline", "value": "8 of 8"}, {"measurement": "survivor count", "setting": "dose: 800.0 mg/kg/injection, schedule: Q01DX001 (oral), vehicle: saline", "value": "8 of 8"}, {"measurement": "survivor count", "setting": "dose: 1600.0 mg/kg/injection, schedule: Q01DX001 (oral), vehicle: saline", "value": "8 of 8"}]}
{"smiles": "OCC1OC(n2cnc3c2NC=NC[C@H]3O)CC1O", "note": "(stereo partly specified)", "values": [{"measurement": "survivor count", "setting": "dose: 0.1 mg/kg/injection, schedule: Q03HX024 (ip), vehicle: clinical formulation", "value": "5 of 5"}, {"measurement": "survivor count", "setting": "dose: 0.1 mg/kg/injection, schedule: Q03HX024 (ip), vehicle: water", "value": "5 of 5"}, {"measurement": "survivor count", "setting": "dose: 0.2 mg/kg/injection, schedule: Q03HX024 (ip), vehicle: clinical formulation", "value": "5 of 5"}, {"measurement": "survivor count", "setting": "dose: 0.2 mg/kg/injection, schedule: Q03HX024 (ip), vehicle: water", "value": "5 of 5"}, {"measurement": "survivor count", "setting": "dose: 0.25 mg/kg/injection, schedule: Q01DX009 (ip), vehicle: saline", "value": "10 of 10"}, {"measurement": "survivor count", "setting": "dose: 0.5 mg/kg/injection, schedule: Q01DX009 (ip), vehicle: saline", "value": "10 of 10"}, {"measurement": "survivor count", "setting": "dose: 0.63 mg/kg/injection, schedule: Q04DX002 (ip), vehicle: saline", "value": "10 of 10"}, {"measurement": "survivor count", "setting": "dose: 1.0 mg/kg/injection, schedule: Q01DX009 (ip), vehicle: saline", "value": "10 of 10"}, {"measurement": "survivor count", "setting": "dose: 1.25 mg/kg/injection, schedule: Q04DX002 (ip), vehicle: saline", "value": "10 of 10"}, {"measurement": "survivor count", "setting": "dose: 2.0 mg/kg/injection, schedule: Q01DX009 (ip), vehicle: saline", "value": "10 of 10"}, {"measurement": "survivor count", "setting": "dose: 2.5 mg/kg/injection, schedule: Q04DX002 (ip), vehicle: saline", "value": "10 of 10"}, {"measurement": "survivor count", "setting": "dose: 5.0 mg/kg/injection, schedule: Q04DX002 (ip), vehicle: saline", "value": "10 of 10"}, {"measurement": "survivor count", "setting": "dose: 10.0 mg/kg/injection, schedule: Q04DX002 (ip), vehicle: saline", "value": "10 of 10"}]}
{"smiles": "Nc1ccc(-c2c(N)nc(Br)c3ccccc23)cc1", "values": [{"measurement": "survivor count", "setting": "dose: 1.0 mg/kg/injection, schedule: Q01DX001 (ip), vehicle: saline with Tween-80", "value": "2 of 2"}, {"measurement": "survivor count", "setting": "dose: 10.0 mg/kg/injection, schedule: Q01DX001 (ip), vehicle: saline with Tween-80", "value": "2 of 2"}, {"measurement": "survivor count", "setting": "dose: 100.0 mg/kg/injection, schedule: Q01DX001 (ip), vehicle: saline with Tween-80", "value": "2 of 2"}]}
{"smiles": "CN(C)N=Nc1ccc(C(F)(F)F)cc1", "values": [{"measurement": "survivor count", "setting": "dose: 118.0 mg/kg/injection, schedule: Q01DX009 (ip), vehicle: Klucel (hydroxypropylcellulose) (HPC)", "value": "9 of 10"}, {"measurement": "survivor count", "setting": "dose: 177.0 mg/kg/injection, schedule: Q01DX009 (ip), vehicle: Klucel (hydroxypropylcellulose) (HPC)", "value": "10 of 10"}, {"measurement": "survivor count", "setting": "dose: 266.0 mg/kg/injection, schedule: Q01DX009 (ip), vehicle: Klucel (hydroxypropylcellulose) (HPC)", "value": "6 of 10"}, {"measurement": "survivor count", "setting": "dose: 400.0 mg/kg/injection, schedule: Q01DX009 (ip), vehicle: Klucel (hydroxypropylcellulose) (HPC)", "value": "1 of 10"}, {"measurement": "survivor count", "setting": "dose: 600.0 mg/kg/injection, schedule: Q01DX009 (ip), vehicle: Klucel (hydroxypropylcellulose) (HPC)", "value": "0 of 10"}]}
